Experimental data: patent publication US11559590B2 (The General Hospital Corporation, priority 2016, dated 2023)

Assay: general procedure: Fmoc solid-phase peptide synthesis
Conditions: whole synthesis, HPLC and mass spectroscopy

With NOTA-3-Ala-Gly-Gly-Ile-Glu-Phe-Asp-CHO the “purity (crude or final not stated)” value was “greater than 90%”.
